Measurements as given in article doi:10.1101/2025.05.30.657000.
No constants are given. Whether binding was seen depends on the method and setting. In cells and extracts the contact can be indirect. Here binding means that the protein was enriched with, or labelled near, the bait; the list need not be complete.

The chains behind the UniProt entries cited, without tags or fusion partners.
UniProt P10415: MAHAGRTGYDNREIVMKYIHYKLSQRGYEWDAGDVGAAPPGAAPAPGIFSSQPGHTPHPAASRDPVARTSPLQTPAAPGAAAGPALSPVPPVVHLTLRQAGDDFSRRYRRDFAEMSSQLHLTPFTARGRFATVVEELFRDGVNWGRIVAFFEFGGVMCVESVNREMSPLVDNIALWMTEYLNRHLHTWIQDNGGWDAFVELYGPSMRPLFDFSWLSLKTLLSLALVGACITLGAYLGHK

B1: syntaxin 5 (protein, UniProt Q13190 1-355)
chain: MIPRKRYGSKNTDQGVYLGLSKTQVLSPATAGSSSSDIAPLPPPVTLVPPPPDTMSCRDRTQEFLSACKSLQTRQNGIQTNKPALRAVRQRSEFTLMAKRIGKDLSNTFAKLEKLTILAKRKSLFDDKAVEIEELTYIIKQDINSLNKQIAQLQDFVRAKGSQSGRHLQTHSNTIVVSLQSKLASMSNDFKSVLEVRTENLKQQRSRREQFSRAPVSALPLAPNHLGGGAVVLGAESHASKDVAIDMMDSRTSQQLQLIDEQDSYIQSRADTMQNIESTIVELGSIFQQLAHMVKEQEETIQRIDENVLGAQLDVEAAHSEILKYFQSVTSNRWLMVKIFLILIVFFIIFVVFLA
B2: Ankle2 (protein, UniProt Q86XL3 1-938)
chain: MLWPRLAAAEWAALAWELLGASVLLIAVRWLVRRLGPRPGGLGRSGTPVPPPSAAAAPASGEMTMDALLARLKLLNPDDLREEIVKAGLKCGPITSTTRFIFEKKLAQALLEQGGRLSSFYHHEAGVTALSQDPQRILKPAEGNPTDQAGFSEDRDFGYSVGLNPPEEEAVTSKTCSVPPSDTDTYRAGATASKEPPLYYGVCPVYEDVPARNERIYVYENKKEALQAVKMIKGSRFKAFSTREDAEKFARGICDYFPSPSKTSLPLSPVKTAPLFSNDRLKDGLCLSESETVNKERANSYKNPRTQDLTAKLRKAVEKGEEDTFSDLIWSNPRYLIGSGDNPTIVQEGCRYNVMHVAAKENQASICQLTLDVLENPDFMRLMYPDDDEAMLQKRIRYVVDLYLNTPDKMGYDTPLHFACKFGNADVVNVLSSHHLIVKNSRNKYDKTPEDVICERSKNKSVELKERIREYLKGHYYVPLLRAEETSSPVIGELWSPDQTAEASHVSRYGGSPRDPVLTLRAFAGPLSPAKAEDFRKLWKTPPREKAGFLHHVKKSDPERGFERVGRELAHELGYPWVEYWEFLGCFVDLSSQEGLQRLEEYLTQQEIGKKAQQETGEREASCRDKATTSGSNSISVRAFLDEDDMSLEEIKNRQNAARNNSPPTVGAFGHTRCSAFPLEQEADLIEAAEPGGPHSSRNGLCHPLNHSRTLAGKRPKAPRGEEAHLPPVSDLTVEFDKLNLQNIGRSVSKTPDESTKTKDQILTSRINAVERDLLEPSPADQLGNGHRRTESEMSARIAKMSLSPSSPRHEDQLEVTREPARRLFLFGEEPSKLDQDVLAALECADVDPHQFPAVHRWKSAVLCYSPSDRQSWPSPAVKGRFKSQLPDLSGPHSYSPGRNSVAGSNPAKPGLGSPGRYSPVHGSQLRRMARLAELAAL
B3: TMEM201 (protein, UniProt Q5SNT2 1-666)
chain: MEGVSALLARCPTAGLAGGLGVTACAAAGVLLYRIARRMKPTHTMVNCWFCNQDTLVPYGNRNCWDCPHCEQYNGFQENGDYNKPIPAQYLEHLNHVVSSAPSLRDPSQPQQWVSSQVLLCKRCNHHQTTKIKQLAAFAPREEGRYDEEVEVYRHHLEQMYKLCRPCQAAVEYYIKHQNRQLRALLLSHQFKRREADQTHAQNFSSAVKSPVQVILLRALAFLACAFLLTTALYGASGHFAPGTTVPLALPPGGNGSATPDNGTTPGAEGWRQLLGLLPEHMAEKLCEAWAFGQSHQTGVVALGLLTCLLAMLLAGRIRLRRIDAFCTCLWALLLGLHLAEQHLQAASPSWLDTLKFSTTSLCCLVGFTAAVATRKATGPRRFRPRRFFPGDSAGLFPTSPSLAIPHPSVGGSPASLFIPSPPSFLPLANQQLFRSPRRTSPSSLPGRLSRALSLGTIPSLTRADSGYLFSGSRPPSQVSRSGEFPVSDYFSLLSGSCPSSPLPSPAPSVAGSVASSSGSLRHRRPLISPARLNLKGQKLLLFPSPPGEAPTTPSSSDEHSPHNGSLFTMEPPHVPRKPPLQDVKHALDLRSKLERGSACSNRSIKKEDDSSQSSTCVVDTTTRGCSEEAATWRGRFGPSLVRGLLAVSLAANALFTSVFLYQSLR

target: BirA*-Bcl-2 (UniProt P10415); test: proximity labelling

binding, binds:
B1
B2
B3
